# The supplement of paper PMC9015667
# Counter-ions that a name gives are not always drawn. This is one part of the list. Single values are uncertain, as repeats are few or missing.
# Tested on: M249P (parental melanoma line)
# Assay: reduction in cell viability relative to untreated/vehicle; higher = more growth inhibition
# Conditions: 200 nM; 72 h
row,Compound,reduction in cell viability
1,CN1CCN(c2c(F)cc3c(=O)c(C(=O)O)cn(CCF)c3c2F)CC1 [Fleroxacin],< 0%
2,COc1cccc2cc(-c3nc([C@H]4CC[C@H](C(=O)O)CC4)n4ncnc(N)c34)[nH]c12,< 0%
3,O=c1c(O)c(-c2ccc(O)c(O)c2)oc2cc(O)cc(O)c12 [Quercetine],< 0%
4,NCC(=O)Nc1ccc(-n2nc(C(F)(F)F)cc2-c2ccc3c(ccc4ccccc43)c2)cc1,< 0%
5,CC(C)C[C@@H](N)[C@H](O)C(=O)N[C@H](C(=O)N[C@H](C(=O)N[C@@H](CC(=O)O)C(=O)O)C(C)C)C(C)C [Amastatin],< 0%
6,C/C=C/C[C@@H](C)C(=O)[C@H]1C(=O)N[C@@H](C(C)C)C(=O)N(C)CC(=O)N(C)[C@@H](CC(C)C)C(=O)N[C@@H](C(C)C)C(=O)N(C)[C@@H](CC(C)C)C(=O)N[C@@H](C)C(=O)N[C@H](C)C(=O)N(C)[C@@H](CC(C)C)C(=O)N(C)[C@@H](CC(C)C)C(=O)N(C)[C@@H](C(C)C)C(=O)N1C [Valspodar],< 0%
7,CCOC(=O)N1CCN(/[N+]([O-])=N/Oc2cc(O/N=[N+](\[O-])N3CCN(C(=O)OCC)CC3)c([N+](=O)[O-])cc2[N+](=O)[O-])CC1 [Double JS-K],< 0%
8,O=c1[nH]cc(F)c(=O)[nH]1 [Fluorouracil],0.04%
9,COc1ccc(Cn2ccc3ccc(C(=O)NO)cc32)cc1,< 0%
10,C[C@@H]1COC(Nc2ccc3ncnc(Nc4ccc(OCc5nccs5)c(Cl)c4)c3c2)=N1 [Varlitinib tosylate],< 0%
11,O=C(Nc1ccccc1Br)N[C@@H]1CCN(c2ccc(C(F)(F)F)cn2)C1,< 0%
12,C[C@H](NC(=O)[C@@H](O)c1cc(F)cc(F)c1)C(=O)N[C@@H]1C(=O)N(C)c2ccccc2-c2ccccc21,< 0%
13,COc1cc2c(Nc3ccc(Cl)c(Cl)c3F)ncnc2cc1OC[C@@H]1C[C@@H]2CN(C)C[C@@H]2C1,< 0%
14,CC(C)Oc1ccc2c(=O)c(-c3ccccc3)coc2c1 [Ipriflavone],< 0%
15,COc1cc(CNC(=O)CCCC/C=C/C(C)C)ccc1O [Capsaicin],< 0%
16,COc1ccc2c(c1)c(CC(=O)O)c(C)n2C(=O)c1ccc(Cl)cc1 [Indomethacin],< 0%
17,N.N.O=C([O-])C[O-].[Pt+2] [Nedaplatin],< 0%
18,Cc1cc(OCCCS(C)(=O)=O)cc(C)c1-c1cccc(COc2ccc3c(c2)OC[C@H]3CC(=O)O)c1,< 0%
19,CC(C)c1onc(-c2c(Cl)cccc2Cl)c1COc1ccc(/C=C/c2cccc(C(=O)O)c2)c(Cl)c1,< 0%
20,COc1ccc(S(=O)(=O)Nc2cccnc2Nc2ccc(O)cc2)cc1,33%
21,CCCCc1ncc(/C=C(\Cc2cccs2)C(=O)O)n1Cc1ccc(C(=O)O)cc1 [Eprosartan mesylate],< 0%
22,CC(C)(C)c1cc(C(C)(C)C)c(NC(=O)c2c[nH]c3ccccc3c2=O)cc1O [Ivacaftor],< 0%
23,CC(C)Oc1cc(Nc2nc(N[C@@H](C)c3ccc(F)cn3)ncc2Cl)n[nH]1,< 0%
24,CC(C[N+](C)(C)C)OC(N)=O (centres undefined) [Bethanechol chloride],< 0%
25,CS(=O)(=O)c1cccc(CNc2nc(Nc3ccc4c(c3)CCC(=O)N4)ncc2C(F)(F)F)c1,< 0%
26,Cn1c(N2CCCCS2(=O)=O)nc(C(=O)NCc2ccc(F)cc2)c(O)c1=O,< 0%
27,O=C(Nc1cccc(C(F)(F)F)c1)Nc1cc(S(=O)(=O)NC2CC2)ccc1-c1ccsc1,< 0%
28,COc1ccc(-c2cc3nccn3c(Nc3ncccc3C(N)=O)n2)cc1OC,< 0%
29,CC(=O)NC[C@H]1CN(c2ccc(N3CCOCC3)c(F)c2)C(=O)O1 [Linezolid],< 0%

# Tested on: M249R (matched melanoma line resistant to BRAF inhibitors)
# Assay: as above
# Conditions: 200 nM; 72 h
row,Compound,reduction in cell viability
1,Cc1c(C)n(Cc2ccc(-c3ccccc3C(=O)O)cc2)c2ccc(C(=O)N[C@@H](C)c3ccc([N+](=O)[O-])cc3)cc12,< 0%
2,O=c1cc(CN2CCOCC2)occ1OCCCCCSc1ccnc2cc(C(F)(F)F)ccc12,< 0%
3,O=c1ncn2nc(Sc3ccc(F)cc3F)ccc2c1-c1c(Cl)cccc1Cl,< 0%
4,CO[C@H]1/C=C/O[C@@]2(C)Oc3c(C)c(O)c4c(c3C2=O)C2=NC3(CCN(CC(C)C)CC3)NC2=C(NC(=O)/C(C)=C\C=C\[C@H](C)[C@H](O)[C@@H](C)[C@@H](O)[C@@H](C)[C@H](OC(C)=O)[C@@H]1C)C4=O [Rifabutin],< 0%
5,O=C(O)C1=CO[C@@H](O[C@@H]2O[C@H](CO)[C@@H](O)[C@H](O)[C@H]2O)[C@@H]2C(CO)=CC[C@H]12 [Geniposidic acid],< 0%
6,O=c1c(-c2ccc(O)cc2)coc2cc(O)cc(O)c12 [Genistein],< 0%
7,CC(CCc1ccc(O)cc1)NCCc1ccc(O)c(O)c1 (centres undefined) [Dobutamine],< 0%
8,C=C1C(=O)[C@]23[C@H](O)[C@H]1CC[C@H]2[C@@]12CO[C@]3(O)[C@@H](O)[C@@H]1C(C)(C)CC[C@@H]2O [Oridonin],< 0%
9,CC(C)OC(=O)C(C(=O)OC(C)C)=C1SC=CS1 [Malotilate],< 0%
10,COc1cc2c(cc1-c1c(C)noc1C)ncc1[nH]c(=O)n([C@H](C)c3ccccn3)c12,19.3%
11,Oc1ccc([C@@H]2Oc3ccc(O)cc3[C@@H]3CCC[C@@H]32)cc1 [Erteberel],10%
12,CN1CCN(c2c(F)cc3c(=O)c(C(=O)O)cn(CCF)c3c2F)CC1 [Fleroxacin],6.17%
13,COc1cccc2cc(-c3nc([C@H]4CC[C@H](C(=O)O)CC4)n4ncnc(N)c34)[nH]c12,8.42%
14,O=c1c(O)c(-c2ccc(O)c(O)c2)oc2cc(O)cc(O)c12 [Quercetine],< 0%
15,NCC(=O)Nc1ccc(-n2nc(C(F)(F)F)cc2-c2ccc3c(ccc4ccccc43)c2)cc1,< 0%
16,CC(C)C[C@@H](N)[C@H](O)C(=O)N[C@H](C(=O)N[C@H](C(=O)N[C@@H](CC(=O)O)C(=O)O)C(C)C)C(C)C [Amastatin],< 0%
17,C/C=C/C[C@@H](C)C(=O)[C@H]1C(=O)N[C@@H](C(C)C)C(=O)N(C)CC(=O)N(C)[C@@H](CC(C)C)C(=O)N[C@@H](C(C)C)C(=O)N(C)[C@@H](CC(C)C)C(=O)N[C@@H](C)C(=O)N[C@H](C)C(=O)N(C)[C@@H](CC(C)C)C(=O)N(C)[C@@H](CC(C)C)C(=O)N(C)[C@@H](C(C)C)C(=O)N1C [Valspodar],1.55%
18,CCOC(=O)N1CCN(/[N+]([O-])=N/Oc2cc(O/N=[N+](\[O-])N3CCN(C(=O)OCC)CC3)c([N+](=O)[O-])cc2[N+](=O)[O-])CC1 [Double JS-K],< 0%
19,O=c1[nH]cc(F)c(=O)[nH]1 [Fluorouracil],< 0%
20,COc1ccc(Cn2ccc3ccc(C(=O)NO)cc32)cc1,< 0%

row,Compound,reduction in cell viability
1,C[C@@H]1COC(Nc2ccc3ncnc(Nc4ccc(OCc5nccs5)c(Cl)c4)c3c2)=N1 [Varlitinib tosylate],< 0%
2,O=C(Nc1ccccc1Br)N[C@@H]1CCN(c2ccc(C(F)(F)F)cn2)C1,< 0%
3,C[C@H](NC(=O)[C@@H](O)c1cc(F)cc(F)c1)C(=O)N[C@@H]1C(=O)N(C)c2ccccc2-c2ccccc21,< 0%
4,COc1cc2c(Nc3ccc(Cl)c(Cl)c3F)ncnc2cc1OC[C@@H]1C[C@@H]2CN(C)C[C@@H]2C1,< 0%
5,CC(C)Oc1ccc2c(=O)c(-c3ccccc3)coc2c1 [Ipriflavone],< 0%
6,COc1cc(CNC(=O)CCCC/C=C/C(C)C)ccc1O [Capsaicin],< 0%
7,COc1ccc2c(c1)c(CC(=O)O)c(C)n2C(=O)c1ccc(Cl)cc1 [Indomethacin],< 0%
8,N.N.O=C([O-])C[O-].[Pt+2] [Nedaplatin],< 0%
9,Cc1cc(OCCCS(C)(=O)=O)cc(C)c1-c1cccc(COc2ccc3c(c2)OC[C@H]3CC(=O)O)c1,< 0%
10,CC(C)c1onc(-c2c(Cl)cccc2Cl)c1COc1ccc(/C=C/c2cccc(C(=O)O)c2)c(Cl)c1,< 0%
11,COc1ccc(S(=O)(=O)Nc2cccnc2Nc2ccc(O)cc2)cc1,37.7%
12,CCCCc1ncc(/C=C(\Cc2cccs2)C(=O)O)n1Cc1ccc(C(=O)O)cc1 [Eprosartan mesylate],< 0%
13,CC(C)(C)c1cc(C(C)(C)C)c(NC(=O)c2c[nH]c3ccccc3c2=O)cc1O [Ivacaftor],< 0%
14,CC(C)Oc1cc(Nc2nc(N[C@@H](C)c3ccc(F)cn3)ncc2Cl)n[nH]1,< 0%
15,CC(C[N+](C)(C)C)OC(N)=O (centres undefined) [Bethanechol chloride],1.79%
16,CS(=O)(=O)c1cccc(CNc2nc(Nc3ccc4c(c3)CCC(=O)N4)ncc2C(F)(F)F)c1,< 0%
17,Cn1c(N2CCCCS2(=O)=O)nc(C(=O)NCc2ccc(F)cc2)c(O)c1=O,< 0%
18,O=C(Nc1cccc(C(F)(F)F)c1)Nc1cc(S(=O)(=O)NC2CC2)ccc1-c1ccsc1,< 0%
19,COc1ccc(-c2cc3nccn3c(Nc3ncccc3C(N)=O)n2)cc1OC,< 0%
20,CC(=O)NC[C@H]1CN(c2ccc(N3CCOCC3)c(F)c2)C(=O)O1 [Linezolid],< 0%
